Measured values: PubChem BioAssay AID504444 (National Center for Advancing Translational Sciences (NCATS), 2011)
Among all 360,000 compounds or so, about 7,500 (2.1%) were called active. Inconclusive results, whose numbers are uncertain, are shown with a selection of clear calls. Calls come from the whole dose curve; as a rule, active = well fitted inhibition curve with a large enough effect; inconclusive = small, poorly fitted or top-dose-only effect, or effect the other way; inactive = flat fitted curve, though single readings scatter. Potencies of inconclusive entries are doubtful fits and often do not repeat.

Assay: Nrf2 qHTS screen for inhibitors; note: nearly all actives have a fitted effect of over 60% in size
Settings: A549 ARE-Fluc reporter, luciferase luminescence, 18-24 h; series mostly up to 46 µM
Outline: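 Reporter: ARE-Fluc in A549. Exposure: 18-24 h, 37 °C, 5% CO2, 5% FBS OPTI-MEM. Readouts: fluorescent cytotoxicity (CellTiter-Fluor), then luminescent Nrf2 signal after BugLite.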
Potency is the fitted concentration of half-maximal effect.

SMILES | Potency
CC(C)(C)c1ccc(/C=N/NC(=O)Cc2c[nH]c3ccccc23)cc1 | active: 25.9 µM
O=C(Nc1ccc(Cl)cc1)NC1CCCCNC1=O (configuration not stated) | inconclusive: 29.1 µM [activator, single point]
Cc1ccc(NC(=O)Nc2cc(C)on2)cc1 | inconclusive: 4.61 µM [activator, full curve]
CCOC(=O)N1CCN(S(=O)(=O)c2ccc(C(=O)NNc3nc4cc(C)cc(C)c4s3)cc2)CC1 | active: 3.66 µM
O=C(c1oc(=O)c2ccccc2c1-c1ccccc1)N1CCC(O)CC1 | inconclusive: 0.82 µM [falling, full curve, poor fit]
CC1CCCN(c2cc(N(C)CCO)c([N+](=O)[O-])c3nonc23)C1 (configuration not stated) | inactive
COc1ccccc1N1CCN(C(=O)c2cnn(-c3cccc(Cl)c3)c2C2CCN(C(=O)OC(C)(C)C)CC2)CC1 | inconclusive: 5.8 µM [falling, full curve, poor fit]
CCCn1c2ccccc2c2cnn(CC(=O)NCC3CCN(Cc4ccc(F)cc4)CC3)c(=O)c21 | inconclusive: 10.3 µM [activator, partial curve, poor fit]
CN(Cc1cnc2nc(N)nc(N)c2n1)c1ccc(C(=O)N[C@@H](CCC(=O)O)C(=O)O)cc1 | active: 1.46 µM
Cc1cc(SCC(=O)NCC(c2cccs2)N2CCOCC2)c(C)cc1Br (configuration not stated) | inconclusive: 18.4 µM [falling, single point]
O=C(Nc1ccncc1)C1CCN(S(=O)(=O)c2ccc(Cl)cc2)CC1 | inconclusive: 29.1 µM [falling, single point]
CCOC(=O)/C=C/C(=O)Nc1cccc([N+](=O)[O-])c1 | inconclusive: 29.1 µM [falling, single point]
N#C/C(=C\c1cccc([N+](=O)[O-])c1)c1ccccn1 | inactive
O=C(N/N=C/c1ccc(O)c(O)c1O)/C(=C/c1ccc([N+](=O)[O-])cc1)NC(=O)c1ccccc1 | inconclusive: 29.1 µM [falling, single point]
Cn1nc(-c2ccccn2)nc2c(=O)n(C)c(=O)nc1-2 | active: 3.66 µM
CNc1snc(C)c1C(=O)OC(C)C(=O)Nc1ccc(F)cc1 (configuration not stated) | inconclusive: 20.6 µM [falling, single point]
CCOC(=O)c1sc(NC(=O)Cc2ccccc2OC)nc1C | inconclusive: 3.66 µM [falling, partial curve, poor fit]
O=[N+]([O-])c1cc(S(=O)(=O)N2CCCC2)ccc1N/N=C/c1cccs1 | inconclusive: 20.6 µM [falling, single point]
Cc1ccc(NC(=O)C2(NC(=O)c3cccc(N4C(=O)CSC4c4ccccc4)c3)CCCCC2)cc1 (configuration not stated) | inconclusive: 29.1 µM [falling, single point]
COc1cc(N2CCCC2)c(OC)cc1/C=C(/C#N)c1ccc(Br)cc1 | inconclusive: 2.06 µM [falling, partial curve, poor fit]
COc1cc(/C=C(\C#N)c2nc3ccccc3[nH]2)ccc1OCc1ccc(F)cc1 | inconclusive: 16.4 µM [falling, partial curve]

In the list so far, these have a cyano group.
SMILES | Potency
N#C/C(=C\c1cccc([N+](=O)[O-])c1)c1ccccn1 | inactive
COc1cc(N2CCCC2)c(OC)cc1/C=C(/C#N)c1ccc(Br)cc1 | inconclusive: 2.06 µM [falling, partial curve, poor fit]
COc1cc(/C=C(\C#N)c2nc3ccccc3[nH]2)ccc1OCc1ccc(F)cc1 | inconclusive: 16.4 µM [falling, partial curve]

Continuation:

SMILES | Potency
COc1cc(-c2nc(SCC(=O)Nc3ccc(C)cc3)c(-c3ccc(F)cc3)[nH]2)cc(OC)c1OC | inconclusive: 18.4 µM [falling, single point]
CCCN(CCC)CCCNC(=O)c1cnn(-c2ccc(F)cc2)c1-n1cccc1 | inconclusive: 2.06 µM [activator, partial curve]
CC(=O)c1sc(NC(=O)CS(=O)(=O)c2ccc(F)cc2)nc1C | inactive
CC(=O)N1c2ccc(S(=O)(=O)N3CCCC(C(=O)NC4CCCC(C)C4C)C3)cc2CC1C (configuration not stated) | inconclusive: 20.6 µM [falling, single point]
CC(C)(C)[C@@H]1COC(=O)[C@@H](Cc2ccc(F)cc2)CC/C=C\C[C@@H](CC(=O)N(CCO)Cc2ccccc2)C(=O)N1 | inconclusive: 29.1 µM [falling, single point]
CC1CC1C(=O)Nc1ccc(S(=O)(=O)N2CCCCC2)cc1 (configuration not stated) | inconclusive: 13 µM [falling, partial curve, poor fit]
S=c1sc2c(Cl)ncnc2n1-c1ccccc1 | inconclusive: 16.4 µM [falling, single point]
COc1ccccc1CCNC(=O)Cn1ccc2cc(S(=O)(=O)N3CCCCC3)ccc21 | inconclusive: 32.6 µM [falling, single point]
CC(C)(C)CC(C)(C)c1ccc(O)c(Cc2ccc(Cl)cc2Cl)c1 | inconclusive: 16.4 µM [falling, single point]
O=C(Nc1ccccc1)C1=C[C@@H](C2CC2)C[C@@H](OCCCCO)O1 | inconclusive: 32.6 µM [activator, single point]
CCOc1ccc(CNC(=O)CN2C(=O)C(c3ccccc3)Oc3cccnc32)cc1 (configuration not stated) | inactive
CC(C)OP(=O)(OC(C)C)C1(O)C(=O)Nc2ccc(Br)cc21 (configuration not stated) | inconclusive: 14.6 µM [falling, single point]
O=C(CN1CCSC1=O)Nc1ccc(N2CCOCC2)cc1 | inactive
COc1ccc(NS(=O)(=O)c2ccc(OC)c(OC)c2)cc1OC | inactive
CC(=O)c1ccc2c(c1)C1C=CCC1C(c1ccc(S(=O)(=O)N3CCOCC3)cc1)N2 (configuration not stated) | inconclusive: 29.1 µM [activator, single point]
Cc1ccc(S(=O)(=O)N2CCC(c3nc4c(nnn4Cc4ccccc4)c(=O)[nH]3)CC2)cc1 | inactive
Cc1ccccc1Oc1ncnc2sccc12 | inconclusive: 8.2 µM [falling, partial curve, poor fit]
O=C(Nc1cccc2nsnc12)c1ccc2c(c1)OCCO2 | inconclusive: 4.11 µM [activator, full curve]
CCOc1ccccc1NC(=O)c1ccc2c(c1)CCN2S(C)(=O)=O | inactive
Cc1ccc(F)c([C@H]2C3C=CCC(c4ccccc4)C3C(=O)N2Cc2ccccc2)c1 (some centres not stated) | inconclusive: 29.1 µM [falling, single point]
O=C(c1cc(F)c(F)cc1Cl)N1CCN(c2ccc([N+](=O)[O-])c3ncccc23)CC1 | inactive

SMILES | Potency
CCn1cc2nc(SCC(=O)Nc3cc(OC)ccc3OC)n(Cc3ccc(Cl)cc3)c(=O)c2n1 | inconclusive: 1.16 µM [falling, partial curve, poor fit]
O=C(C[C@H]1C/C=C\C[C@H](NC(=O)OCC2c3ccccc3-c3ccccc32)C(=O)O[C@H](c2ccccc2)CNC1=O)N[C@H](CO)Cc1ccccc1 | inconclusive: 29.1 µM [falling, single point]
CCN(CC)c1ccc(/C=C/c2ccc3ccc(OC)cc3[n+]2CC)cc1 | active: 4.61 µM
CC(C)c1nnc(NC(=O)c2cccs2)s1 | inconclusive: 29.1 µM [activator, single point]
COc1ccc(NC(=O)c2cc(-c3ccccc3)nc3c2cnn3C(C)C)c(OC)c1 | inconclusive: 7.31 µM [falling, partial curve, poor fit]
O=C(CCCc1nc2ccccc2s1)NCc1ccccc1F | inconclusive: 0.651 µM [falling, partial curve, poor fit]
COc1cc(/C=N/N(CCO)C2=NS(=O)(=O)c3ccccc32)cc(OC)c1OC | inconclusive: 0.259 µM [activator, partial curve, poor fit]
CNc1cc(N2CCCCCC2)ccc1[N+](=O)[O-] | inconclusive: 32.6 µM [falling, single point]
COc1ccc(OCc2nnc(SC(C)C(=O)Nc3nccs3)n2-c2ccccc2)cc1 (configuration not stated) | inconclusive: 29.1 µM [falling, single point]
Cc1ccc(NC(=O)CCCCCN2C(=O)[C@@H]3Cc4ccccc4CN3C2=O)c(C)c1 | inconclusive: 25.9 µM [falling, partial curve, poor fit]
COc1ccccc1C(=O)COC(=O)CSCC(=O)Nc1cc(C)on1 | inconclusive: 0.731 µM [activator, full curve, poor fit]
Cc1ccc2nc(-c3ccc(NC(=O)C(C)Sc4nncs4)cc3)sc2c1 (configuration not stated) | inconclusive: 1.3 µM [activator, partial curve, poor fit]
CCOc1ccc(CNC(=O)CCC(=O)N2Cc3ccccc3Oc3ncccc32)cc1 | inconclusive: 1.46 µM [activator, full curve, poor fit]
Cc1ccc(-c2nnc(SC(C)C#N)n2N)cc1 (configuration not stated) | inconclusive: 25.9 µM [activator, single point]
COc1cc(/C=N/Nc2ccc(Cl)c(C(=O)O)c2)ccc1OC(=O)c1ccco1 | inconclusive: 9.2 µM [activator, partial curve]
CN(C)CCCNC(=O)C[C@H]1C[C@H](C(=O)N2CCOCC2)[C@@]2(C)c3[nH]c4cc(-c5ccco5)ccc4c3CCN2C1=O | inconclusive: 16.4 µM [activator, partial curve, poor fit]
COc1ccc(Cl)cc1C(=O)Nc1ccc2c(c1)OCCO2 | inconclusive: 2.91 µM [activator, partial curve]
Cc1cc(C)cc(N2C(=O)N(c3ccccc3C)C3CS(=O)(=O)CC32)c1 (configuration not stated) | inactive
CC(C)(C)NC(=O)NC(=O)COC(=O)Cn1c(C(F)(F)F)nc2ccccc21 | inconclusive: 0.326 µM [falling, full curve, poor fit]
Cn1c(N)c(C(=O)COC(=O)c2cc(C3CC3)nc3ccccc23)c(=O)n(Cc2ccccc2)c1=O | inconclusive: 23.1 µM [falling, partial curve, poor fit]
